Assay results taken from US11325884B2, “Ketone inhibitors of lysine gingipain” (CORTEXYME, INC., priority 2016, dated 2022).
At least one structure is not confirmed: it was looked up by name or label, or the drawing left a doubt.

Protein sequences, listed by entry. Tags and fused reporters are not part of them. Residues count along the entry.
UniProt Q51817, 229-737 limits assumed: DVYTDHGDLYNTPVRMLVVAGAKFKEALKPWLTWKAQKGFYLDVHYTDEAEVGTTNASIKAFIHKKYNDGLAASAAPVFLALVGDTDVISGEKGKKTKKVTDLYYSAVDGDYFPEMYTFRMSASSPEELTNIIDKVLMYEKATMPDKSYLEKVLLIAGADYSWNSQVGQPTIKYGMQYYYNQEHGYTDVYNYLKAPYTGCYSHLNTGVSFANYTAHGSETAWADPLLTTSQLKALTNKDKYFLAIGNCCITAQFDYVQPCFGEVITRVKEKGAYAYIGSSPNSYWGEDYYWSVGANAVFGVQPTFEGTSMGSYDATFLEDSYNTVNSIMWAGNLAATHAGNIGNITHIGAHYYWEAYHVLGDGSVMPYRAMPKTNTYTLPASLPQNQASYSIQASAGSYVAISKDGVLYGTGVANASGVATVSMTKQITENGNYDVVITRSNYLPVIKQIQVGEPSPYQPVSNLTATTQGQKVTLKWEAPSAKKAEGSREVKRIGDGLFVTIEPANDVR

Target: Kgp (Porphyromonas gingivalis (Bacteroides gingivalis), UniProt Q51817)
Experiment: Detection of Kgp with Cy5 activity-based probe (SDS-PAGE, Cy5 visualization)
Format: binding
Settings: probe 1 μM, P. gingivalis
Procedure: It has a warhead that binds to the Kgp active site, a peptide-based core, and a Cy5 fluorophore for detection. Labeled target proteins can be visualized by biochemical separation of a sample with fractionation by 2-D gel electrophoresis and detection of fluorescent signals from Cy5 at the appropriate excitation and emission wavelength. Incubation of a fixed concentration of the probe following binding of Kgp to a test compound (e.g., a candidate Kgp inhibitor) results in binding of the activity probe to Kgp active sites not already bound by the test compound.
Preparation of P. gingivalis lysate. 10^8 bacteria were collected and centrifuged at 5000 g for 10 min at 4° C., and the supernatant was discarded. The bacterial cell pellet was lysed with 1 mL of B-Per lysis buffer (Thermo Fischer) on ice for 10 min, then centrifuged for 10 min at 14000 g, 4° C. Supernatant-containing protein lysate was collected. Biological samples were lysed with B-Per lysis buffer for 10 min at 4° C.
Cy5 direct labeling of Kgp. Biological samples, P. gingivalis lysate or purified Kgp were incubated with quenchable Cy5 probe compound 71 (1 μM) for 1 h at 37° C. with shaking. […]

## C[N+]1=C(/C=C/C=C/C=C2\N(CCCCCC(=O)NCc3cn(-c4cccc(C(=O)N[C@@H](CCCCN)C(=O)COc5c(F)cc(CNC(=O)C6CCN(S(=O)(=O)c7ccccc7-c7c8cc/c(=[N+]9\CCc%10cc(S(=O)(=O)O)ccc%109)cc-8oc8cc(N9CCc%10cc(S(=O)(=O)O)ccc%109)ccc78)CC6)cc5F)c4)nn3)c3ccc(S(=O)(=O)O)cc3C2(C)C)C(C)(C)c2cc(S(=O)(=O)O)ccc21 [Compound 71]
  apparent limit of detection of Kgp: 500 CFU
